Taken from: PubChem BioAssay AID504791 (Drosophila RNAi Screening Center, 2011)

Purpose: 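Genes of the fly required for silencing by miRNA, siRNA or endo-siRNA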 (primary screen)
Cell system: Drosophila S2-derived reporter cells
Knock-down reagent: long dsRNA against Drosophila genes, about 150-250 ng dsRNA per well (siRNA assay); about 80-120 ng (miRNA assay)
Duration: about 5 days (siRNA assay); about 4 days (miRNA assay)
Challenge: copper sulfate induction of reporters: 25 µM (siRNA assay); 200 mM stated (miRNA assay), 1-2 days before reading
Measured: 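Dual luciferase assay: Renilla to firefly signal ratio in each well, scaled to the mean ratio of its plate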
Units: stable assay Renilla, run 1 in luminescence; stable assay firefly, run 1 in luminescence
Active means: 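a well was a first-pass pick when its plate-scaled ratio rose above 1.5 (siRNA assay) or 1.6 (miRNA assay), or dropped below 0.6; a gene counted only if two separate dsRNAs agreed on retest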
The screen tested about 23,000 reagents; below is a random part of those with a known target gene and a result. In the full data, 199 (0.86%) are marked active. 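Plate-scaled ratios behind the calls are not deposited; printed light signals are raw; many rows marked increased or decreased are still called inactive.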 The numbers tell different reagents against one gene apart. A plus sign joins genes that one reagent is predicted to hit. Not given: the direction of the score.

Against CG1344, the entry reads stable assay Renilla, run 1 = 8842; stable assay firefly, run 1 = 1.28e6; inactive.
CG11986 gave stable assay Renilla, run 1 = 8829; stable assay firefly, run 1 = 4.62e5; inactive.
After knock-down of Gad1, the screen gave stable assay Renilla, run 1 = 8210; stable assay firefly, run 1 = 5.14e5; inactive.
CG6023 showed stable assay Renilla, run 1 = 7270; stable assay firefly, run 1 = 3.63e5; inactive.
CG14200 #1 gave stable assay Renilla, run 1 = 3992; stable assay firefly, run 1 = 2.66e5; inactive.
After knock-down of CG14200 #2, the screen gave stable assay Renilla, run 1 = 4928; stable assay firefly, run 1 = 4.11e5; inactive.
Knock-down of mol #1 came out at: stable siRNA reporter change reporter ratio raised past the hit cutoff; stable assay Renilla, run 1 = 3515; stable assay firefly, run 1 = 1.14e5; inactive.
mol #2 showed stable assay Renilla, run 1 = 5958; stable assay firefly, run 1 = 1.39e6; inactive.
mol #3 scored stable assay Renilla, run 1 = 6942; stable assay firefly, run 1 = 4.26e5; inactive.
Against CG34225, the entry reads stable assay Renilla, run 1 = 6243; stable assay firefly, run 1 = 4.07e5; inactive.
After knock-down of CG17598, the record shows stable assay Renilla, run 1 = 7003; stable assay firefly, run 1 = 4.23e5; inactive.
Kaz1-ORFB + Kaz1-ORFA scored stable assay Renilla, run 1 = 6519; stable assay firefly, run 1 = 4.21e5; inactive.
Silencing of CG11035 resulted in: stable assay Renilla, run 1 = 7374; stable assay firefly, run 1 = 3.78e5; inactive.
After knock-down of Ent3, the screen gave stable assay Renilla, run 1 = 7853; stable assay firefly, run 1 = 4.44e5; inactive.
Knock-down of CG11298 gave: stable assay Renilla, run 1 = 7618; stable assay firefly, run 1 = 4.82e5; inactive.
For CG10097 + CG10096 #1, the entry reads stable assay Renilla, run 1 = 8442; stable assay firefly, run 1 = 4.22e5; inactive.
CG10097 + CG10096 #2 showed stable assay Renilla, run 1 = 6903; stable assay firefly, run 1 = 4.79e5; inactive.
CG9168 showed stable assay Renilla, run 1 = 6835; stable assay firefly, run 1 = 3.57e5; inactive.
Knock-down of btsz #1 resulted in: stable assay Renilla, run 1 = 5651; stable assay firefly, run 1 = 2.69e5; inactive.
For btsz #2, the values are stable assay Renilla, run 1 = 7343; stable assay firefly, run 1 = 3.53e5; inactive.
For spn-E, the entry reads stable assay Renilla, run 1 = 7612; stable assay firefly, run 1 = 4.72e5; inactive.
After knock-down of escl the results were stable assay Renilla, run 1 = 24558; stable assay firefly, run 1 = 1.58e6; inactive.
Grx1 scored stable assay Renilla, run 1 = 6823; stable assay firefly, run 1 = 4.19e5; inactive.
Silencing of PolZ1 gave: stable assay Renilla, run 1 = 8894; stable assay firefly, run 1 = 5.00e5; inactive.
VhaPPA1-2 showed stable assay Renilla, run 1 = 6987; stable assay firefly, run 1 = 4.51e5; inactive.
Depletion of nub #1 resulted in: stable assay Renilla, run 1 = 5488; stable assay firefly, run 1 = 5.78e5; inactive.
With knock-down of nub #2, the record shows stable assay Renilla, run 1 = 7419; stable assay firefly, run 1 = 4.15e5; inactive.
Against nub #3, the entry reads stable assay Renilla, run 1 = 6084; stable assay firefly, run 1 = 3.61e5; inactive.
Silencing of nub #4 resulted in: stable siRNA reporter change reporter ratio raised past the hit cutoff; stable assay Renilla, run 1 = 7755; stable assay firefly, run 1 = 2.66e5; inactive.
Depletion of nub #5 resulted in: stable assay Renilla, run 1 = 5531; stable assay firefly, run 1 = 4.91e5; inactive.
Knock-down of Utx resulted in: stable assay Renilla, run 1 = 6274; stable assay firefly, run 1 = 3.64e5; inactive.
CG6236 showed stable assay Renilla, run 1 = 7952; stable assay firefly, run 1 = 3.97e5; inactive.
For CG13177, the values are stable assay Renilla, run 1 = 5423; stable assay firefly, run 1 = 3.81e5; inactive.
With knock-down of CG3071, the record shows stable assay Renilla, run 1 = 7102; stable assay firefly, run 1 = 3.21e5; inactive.
Crtp gave stable assay Renilla, run 1 = 5479; stable assay firefly, run 1 = 3.49e5; inactive.

Individual results from above:
Under “outcome”, nub #3 has inactive
CG17598, outcome = inactive
CG11986, outcome = inactive
Result of VhaPPA1-2 under “outcome”: inactive
